This passage reports binding results from article PMC4805597.

The chains behind the UniProt entries cited, without tags or fusion partners.
UniProt O88704: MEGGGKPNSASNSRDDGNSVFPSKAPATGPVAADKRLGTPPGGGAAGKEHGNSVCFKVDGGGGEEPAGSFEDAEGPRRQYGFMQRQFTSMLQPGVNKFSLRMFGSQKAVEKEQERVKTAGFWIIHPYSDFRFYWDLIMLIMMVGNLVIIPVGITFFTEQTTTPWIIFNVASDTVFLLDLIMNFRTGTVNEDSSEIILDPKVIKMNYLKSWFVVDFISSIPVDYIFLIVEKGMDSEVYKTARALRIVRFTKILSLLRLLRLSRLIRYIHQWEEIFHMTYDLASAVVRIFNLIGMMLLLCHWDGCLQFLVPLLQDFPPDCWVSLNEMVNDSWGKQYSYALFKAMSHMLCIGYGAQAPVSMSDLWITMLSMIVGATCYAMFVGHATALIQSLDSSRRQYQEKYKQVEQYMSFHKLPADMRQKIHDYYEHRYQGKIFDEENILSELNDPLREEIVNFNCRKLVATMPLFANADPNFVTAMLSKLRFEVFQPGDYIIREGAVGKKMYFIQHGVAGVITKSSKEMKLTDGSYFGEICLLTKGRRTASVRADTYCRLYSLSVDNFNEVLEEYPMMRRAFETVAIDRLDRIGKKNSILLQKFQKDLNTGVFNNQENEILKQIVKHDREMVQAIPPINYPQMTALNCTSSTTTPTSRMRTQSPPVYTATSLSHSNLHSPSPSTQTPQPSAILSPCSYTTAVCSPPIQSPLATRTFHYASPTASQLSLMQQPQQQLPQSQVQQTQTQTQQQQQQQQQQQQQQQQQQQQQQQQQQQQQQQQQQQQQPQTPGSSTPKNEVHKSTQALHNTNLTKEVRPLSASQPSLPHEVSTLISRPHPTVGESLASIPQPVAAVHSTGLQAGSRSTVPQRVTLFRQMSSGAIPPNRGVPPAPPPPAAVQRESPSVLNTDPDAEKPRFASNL

The target of this assay is Cellular prion protein (mouse (endogenous in hippocampus)) (UniProt P04925). As to the kind of experiment: co-IP.

No constants are given. Whether binding was seen depends on the method and setting. In cells and extracts the contact can be indirect.

“Hyperpolarization-activated cyclic nucleotide-gated channel subunit HCN1 (from UniProt O88704 1-910)”: the binding entry is listed as “no binding”.

B1: Hyperpolarization-activated cyclic nucleotide-gated channel subunit HCN2 (protein, UniProt O88703 1-863)
chain: MDARGGGGRPGDSPGTTPAPGPPPPPPPPAPPQPQPPPAPPPNPTTPSHPESADEPGPRARLCSRDSACTPGAAKGGANGECGRGEPQCSPEGPARGPKVSFSCRGAASGPSAAEEAGSEEAGPAGEPRGSQASFLQRQFGALLQPGVNKFSLRMFGSQKAVEREQERVKSAGAWIIHPYSDFRFYWDFTMLLFMVGNLIIIPVGITFFKDETTAPWIVFNVVSDTFFLMDLVLNFRTGIVIEDNTEIILDPEKIKKKYLRTWFVVDFVSSIPVDYIFLIVEKGIDSEVYKTARALRIVRFTKILSLLRLLRLSRLIRYIHQWEEIFHMTYDLASAVMRICNLISMMLLLCHWDGCLQFLVPMLQDFPSDCWVSINNMVNHSWSELYSFALFKAMSHMLCIGYGRQAPESMTDIWLTMLSMIVGATCYAMFIGHATALIQSLDSSRRQYQEKYKQVEQYMSFHKLPADFRQKIHDYYEHRYQGKMFDEDSILGELNGPLREEIVNFNCRKLVASMPLFANADPNFVTAMLTKLKFEVFQPGDYIIREGTIGKKMYFIQHGVVSVLTKGNKEMKLSDGSYFGEICLLTRGRRTASVRADTYCRLYSLSVDNFNEVLEEYPMMRRAFETVAIDRLDRIGKKNSILLHKVQHDLSSGVFNNQENAIIQEIVKYDREMVQQAELGQRVGLFPPPPPPQVTSAIATLQQAVAMSFCPQVARPLVGPLALGSPRLVRRAPPGPLPPAASPGPPAASPPAAPSSPRAPRTSPYGVPGSPATRVGPALPARRLSRASRPLSASQPSLPHGVPAPSPAASARPASSSTPRLGPAPTARTAAPSPDRRDSASPGAASGLDPLDSARSRLSSNL
For B1, the binding entry is given as “no binding”.
